## Library screening results

Measurements from “University of Dundee, Small-Polar-MMV Screening Library” (2021), ChEMBL document CHEMBL3988442.

The filed quantity is “Percent Effect” (%). The record does not define 0% and 100%; most values in the screen are far below 50% and negative numbers occur (in some assays of this library far below -100). Compounds were drawn at random from those tested, without regard to their results. Two or more numbers in one place are separate tests of the same structure; such repeats can differ widely.

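Viability assay of Plasmodium falciparum sporozoites; the read-out is not stated. The concentration is filed as 10 mM, unlikely as a test dose, so the dose is not known. Higher reads as lower viability (inferred: compounds with an IC50 in retests scored well above the rest). Strong results were mostly tested again. About 34,000 compounds were tested under these conditions; 0.84% (about 280) showed 50% or more at least once.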

- Cc1nnc(CCNC(=O)c2coc(CN3CCOCC3)c2)s1 | -1.862%
- CC(CO)CN(Cc1ccccc1)C(=O)c1csc(CN(C)C)n1 (stereo not drawn) | -11.54%
- Cc1nc(C)n(CC2CN(CCCOc3ccccc3C)CCO2)n1 (stereo not drawn) | -7.843%
- O=C(O)C(F)(F)F.[H][C@@]12CCN(CC3CCOCC3)C[C@]1(c1nc(C)no1)CCO2 | -1.19%
- COc1ccc(NC(=O)C2OC(c3cccs3)=NN2C(C)=O)cc1 (stereo not drawn) | -10.34%
- [H][C@]12CC[C@@]3(N=C(c4ccccc4)NC3=O)[C@@]1([H])CN(C(=O)NC)C2 | -8.724%
- Cc1cn2c(n1)CCC(NC(=O)CCCOCc1ccccc1)C2 (stereo not drawn) | -17.16%
- O=C(O)C(F)(F)F.[H][C@@]12CCN(c3ccc(C)nn3)[C@]1([H])CC[C@@H](C(=O)N1CCCCO1)O2 | 6.066%
- COc1cc2c(cc1CNC(=O)Cc1cc(C)on1)OC(C)C2 (stereo not drawn) | 3.781%
- O=C(O)C(F)(F)F.[H][C@@]12CCN(Cc3ccco3)C[C@@]1([H])[C@H](C(=O)NCC1CC1)CCO2 | 3.355%
- CCCc1nc(C(=O)N(C)Cc2cnn(-c3cccc(OC)c3)c2)cs1 | -6.443% & -6.181%
- Cc1cccnc1CC(C)Nc1ncc(C)c(N(C)C)n1 (stereo not drawn) | 11.58%
- CC(Cn1cccn1)NC(=O)N1CCN(Cc2cccs2)CC1 (stereo not drawn) | -15.2%
- CC(=O)N1CCCC1c1nccnc1Nc1ncccn1 (stereo not drawn) | 6.527%
- CN1CCN(C(CNC(=O)CCn2cccn2)c2cccs2)CC1 (stereo not drawn) | -4.721%
- O=C(c1ccsc1)N1CCc2ncc(Cn3cncn3)n2CC1 | 6.443%
- CC(C)Nc1nc2c(cc1C(=O)NCC1CC1)CCNCC2.O=C(O)C(F)(F)F.O=C(O)C(F)(F)F | 10.06%
- O=C(NCC1CC1)C1CCC2(CCN(C(=O)c3ccncc3)CC2)O1.O=C(O)C(F)(F)F (stereo not drawn) | 6.498%
- CC(=O)N1CCC2(CC1)CN(C(=O)C1CC1)c1ccc(F)cc12 | 3.08%
- O=C(NCCC(=O)N1CCCC1)c1nn(-c2ccccc2F)cc1O | 0.08354%
- CC(=O)N1CCCC(Cc2cncc(Br)c2)CC1 (stereo not drawn) | -4.384%
- COC(=O)N1CCCC(C(=O)N(C)C)C1 (stereo not drawn) | 0.6529%
- O=C(c1ccc2c(c1)OCO2)N1CCCSCC1CN1CCCC1 (stereo not drawn) | -22.91%
- O=C(NC1COC2(CCN(Cc3ccccn3)CC2)C1)c1ccccn1.O=C(O)C(F)(F)F (stereo not drawn) | -4.804%
- Cn1nc2c(cc1=O)CN(Cc1coc(-c3cccs3)n1)CC2 | 3.04%
- [H][C@]12CCC[C@@]1(COCC1CCOCC1)CN(C(=O)c1ccnnc1)C2 | -15.77%
- Cc1cc(C)n2cc(CN3CCCC3Cn3nc(C)nc3C)nc2n1 (stereo not drawn) | -5.637%
- O=C(NC1CCCC1)N1CCCC(c2nccn2Cc2ccncc2)C1 (stereo not drawn) | 1.344%
- CC(C)n1cc(C(=O)NCCc2cn3ccsc3n2)cn1 | -15.45%
- CC(C)(NCC(=O)NCC(F)(F)F)c1ccc2c(c1)OCCO2 | 3.04%
- CNc1cc(C2CCCN2Cc2ccccc2OCC(=O)O)ccn1 (stereo not drawn) | -3.673%
- Fc1cnc(N2CCCC3(CCN(Cc4ccoc4)C3)C2)nc1.O=C(O)C(F)(F)F.O=C(O)C(F)(F)F (stereo not drawn) | -7.015%
- CCOC(=O)c1n[nH]cc1-c1cncn1CCn1nc(C)c(C)c1C.Cl | -0.4051%
- NC(=O)C1CCN(c2ncc(-c3cnccn3)c([C@H]3CCCO3)n2)CC1 | 0.6078%
- CCC1c2ccsc2CCN1C(=O)NCc1cc[nH]n1 (stereo not drawn) | 1.127%
- COC(=O)CS(=O)(=O)CCC(=O)N1CCCC1c1ccsc1 (stereo not drawn) | 3.807%
- [H][C@@]12CN(CC(=O)N(C)C)C[C@]1([H])OCCN2c1ncc(F)cn1 | 6.93%
- Cc1nccn1CCCn1cncc1-c1ccc2c(c1)CCC(C)N2C.Cl (stereo not drawn) | 5.897%
- O=C1C(NS(=O)(=O)c2cc(F)cc(F)c2)CCN1Cc1ccccc1 (stereo not drawn) | 2.714%
- CN1CC(=O)N(c2ccsc2)CC12CCN(C(=O)N1CCCC1)C2.O=C(O)C(F)(F)F (stereo not drawn) | -5.589%
- Cc1cc(C)n(C2CCCN(C(=O)c3cccc4c3OCO4)C2)n1 (stereo not drawn) | -6.84%
- Cc1[nH]c2ccccc2c1-c1ccnc(N[C@@H](CO)C(C)C)n1 | 10.41%
- O=C(CN1CCNCC1)N1CC[C@@H](c2ccc3ccccc3c2)[C@H](O)C1 | 2.146%
- CCc1nccn1-c1cncc(C2CCCN2Cc2ccccc2)n1 (stereo not drawn) | 12.89%
- OC(CN1CCC(c2ccn[nH]2)CC1)c1cccc(C(F)(F)F)c1 (stereo not drawn) | 5.919%
- Cc1ccc(OCCN(C)C(=O)NC(C)c2nncn2C)cc1 (stereo not drawn) | 14.33%
- Cc1cc(C)c(CNC(=O)NCCOc2ccc3c(c2)CCC3)c(=O)[nH]1 | -4.021% & -9.233% & 4.551%
- [H][C@@]12CCN(S(=O)(=O)C3CC3)[C@]1([H])CC[C@@H](c1nnc(C)o1)O2 | 3.872%
- CC(C)c1ccc(OCC(=O)N2CCOCC2c2ncon2)cc1 (stereo not drawn) | -9.659% & -3.377% & 16.92%
- O=C(NCCC1CCCO1)c1ccccc1N1CCOCC1 (stereo not drawn) | -4.21%
- CN(C)c1ncccc1CNS(=O)(=O)c1c(F)cccc1F | -0.4432%
- CC1(c2ncc(CN3CCSCC3)cn2)CCCCO1 (stereo not drawn) | 0.4491%
- CC(=O)N1CCN(C(=O)c2cccc(OCc3cscn3)c2)CC1 | 1.596%
- O=C(CCNC(=O)c1ccoc1)Nc1cc(F)ccc1F | -4.459%
- CS(=O)(=O)NC1CCN(C(=O)NCc2cccnc2)CC1 | 8.878%
- Cc1ccnc(C2COCCN2C)n1 (stereo not drawn) | 5.133%

Repeated from the top, 5 entries:

Compound,effect
Cc1nnc(CCNC(=O)c2coc(CN3CCOCC3)c2)s1,-1.862
CC(CO)CN(Cc1ccccc1)C(=O)c1csc(CN(C)C)n1 (stereo not drawn),-11.54
Cc1nc(C)n(CC2CN(CCCOc3ccccc3C)CCO2)n1 (stereo not drawn),-7.843
O=C(O)C(F)(F)F.[H][C@@]12CCN(CC3CCOCC3)C[C@]1(c1nc(C)no1)CCO2,-1.19
COc1ccc(NC(=O)C2OC(c3cccs3)=NN2C(C)=O)cc1 (stereo not drawn),-10.34